Experimental data as given in paper PMC12687491.
The exact form of at least one protein or probe is not confirmed. The comparison behind a weaker result is the experiment's own reference, which may not be listed here. For part of these data: At least one verdict rests on a figure or table, not on a statement of the authors.

The chains behind the UniProt entries cited, without tags or fusion partners. A line that says so, or that is headed by a name, gives the form on record, which may keep a tag or linker.
UniProt P35631, other isoform, or with tags, fused parts or gaps: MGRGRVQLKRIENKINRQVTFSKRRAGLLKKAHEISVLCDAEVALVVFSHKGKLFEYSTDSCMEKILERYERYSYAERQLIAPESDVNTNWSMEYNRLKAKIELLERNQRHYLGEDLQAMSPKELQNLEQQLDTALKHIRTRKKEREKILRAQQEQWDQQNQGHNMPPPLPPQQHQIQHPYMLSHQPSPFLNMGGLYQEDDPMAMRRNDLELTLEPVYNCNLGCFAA

Tests used:
[1] = biological target: AP1 wild type (Arabidopsis thaliana) (UniProt P35631); test: EMSA; settings: Naked DNA EMSA: 7.2 mM HEPES pH 7.3, 1.2 mM EDTA, 0.25 mg/ml BSA, 0.7 mM DTT, 60 ug/ml salmon sperm DNA, 1.3 mM spermidine, 2.5% CHAPS, 8% glycerol, on ice, protein translated in vitro, label: DY682, probe letters rebuilt from the primers and the genome, part of a longer molecule
[2] = biological target: AP1tet del144-172 (Arabidopsis thaliana) (UniProt P35631); test: EMSA; settings: Naked DNA EMSA: 7.2 mM HEPES pH 7.3, 1.2 mM EDTA, 0.25 mg/ml BSA, 0.7 mM DTT, 60 ug/ml salmon sperm DNA, 1.3 mM spermidine, 2.5% CHAPS, 8% glycerol, on ice, protein translated in vitro, label: DY682, probe letters rebuilt from the primers and the genome, part of a longer molecule
[3] = Kd determined, value only in figure
[4] = Kd lower than AP1 WT, value only in figure

| Sequence | binding result [1, 3] | binding result [2, 4] | binding result ([1]; very weak or not seen, Kd not estimable, binding seen at higher protein) | binding result ([2]; very weak signal, Kd not estimable) |
| --- | --- | --- | --- | --- |
| TGGGTATAAATCCAATAGACATTTGATAGTATTAAAATTGTAACCATTGGATTAAATTTAAACGTGATGGATGTAACTAAATGACTTGTCCGAGTAACATCACAACGTTCCATACTTTCCTTATTTGGAATATAATTAAATTTACCATTTATTCTTTTTTCTTGAGTTTCCTGTATATG (double strand) [AG intron DNA] | binds | binds | – | – |
| ATGTATATGGAGATCATGAGCAAAAGTAGTAAGCAACAAAAGGAAAAGTAGAAACTTAACAAATTGAGCAAAACTAAAAGAATCTAAGCTCGTGGCCTTGAAGACAACATCCCAAGAATATCCATTATCTTCGCCTTTGTTACATCTCCACCCTTCTTTTCTTCC (double strand) [AP1 promoter DNA] | binds | binds | – | – |
| ATTGCTTTTTAAAGTGTACATATACATTTGTACAAATCTCACAACACTTCTCTCAAAGTACATATAAACATGTCAGCTTCATTACTTGAAATATTCTCTTTCTAATATACTCTCAGACTCAACTATATACCCTCCAATTATTGTGTACCAAAGACCCTCATAGGATTTATTCAAA (double strand) [SEP3 TSS DNA] | – | – | binds more weakly | binds more weakly |
